These are yes or no findings as the source states them, for the method shown. In cells and extracts the contact can be indirect. Some results given as binding are weak or reduced against the parent protein; the word gives no strength.
T1: alanine aminotransferase 1 (human (endogenous in HepG2)) (UniProt P24298)
T1 sequence: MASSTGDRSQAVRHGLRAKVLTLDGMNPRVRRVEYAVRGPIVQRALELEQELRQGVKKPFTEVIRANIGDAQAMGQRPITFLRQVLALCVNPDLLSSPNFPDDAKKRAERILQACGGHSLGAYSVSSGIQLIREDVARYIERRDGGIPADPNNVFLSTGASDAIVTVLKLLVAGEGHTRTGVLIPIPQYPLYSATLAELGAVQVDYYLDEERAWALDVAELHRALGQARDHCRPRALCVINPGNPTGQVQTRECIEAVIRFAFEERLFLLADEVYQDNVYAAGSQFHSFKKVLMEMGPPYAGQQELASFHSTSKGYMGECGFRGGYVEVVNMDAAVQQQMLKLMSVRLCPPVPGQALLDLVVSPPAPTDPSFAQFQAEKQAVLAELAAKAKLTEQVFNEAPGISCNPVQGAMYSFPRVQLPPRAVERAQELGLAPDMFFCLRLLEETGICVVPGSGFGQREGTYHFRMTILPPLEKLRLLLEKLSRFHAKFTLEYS

The chains behind the UniProt entries cited, without tags or fusion partners.
UniProt P46013: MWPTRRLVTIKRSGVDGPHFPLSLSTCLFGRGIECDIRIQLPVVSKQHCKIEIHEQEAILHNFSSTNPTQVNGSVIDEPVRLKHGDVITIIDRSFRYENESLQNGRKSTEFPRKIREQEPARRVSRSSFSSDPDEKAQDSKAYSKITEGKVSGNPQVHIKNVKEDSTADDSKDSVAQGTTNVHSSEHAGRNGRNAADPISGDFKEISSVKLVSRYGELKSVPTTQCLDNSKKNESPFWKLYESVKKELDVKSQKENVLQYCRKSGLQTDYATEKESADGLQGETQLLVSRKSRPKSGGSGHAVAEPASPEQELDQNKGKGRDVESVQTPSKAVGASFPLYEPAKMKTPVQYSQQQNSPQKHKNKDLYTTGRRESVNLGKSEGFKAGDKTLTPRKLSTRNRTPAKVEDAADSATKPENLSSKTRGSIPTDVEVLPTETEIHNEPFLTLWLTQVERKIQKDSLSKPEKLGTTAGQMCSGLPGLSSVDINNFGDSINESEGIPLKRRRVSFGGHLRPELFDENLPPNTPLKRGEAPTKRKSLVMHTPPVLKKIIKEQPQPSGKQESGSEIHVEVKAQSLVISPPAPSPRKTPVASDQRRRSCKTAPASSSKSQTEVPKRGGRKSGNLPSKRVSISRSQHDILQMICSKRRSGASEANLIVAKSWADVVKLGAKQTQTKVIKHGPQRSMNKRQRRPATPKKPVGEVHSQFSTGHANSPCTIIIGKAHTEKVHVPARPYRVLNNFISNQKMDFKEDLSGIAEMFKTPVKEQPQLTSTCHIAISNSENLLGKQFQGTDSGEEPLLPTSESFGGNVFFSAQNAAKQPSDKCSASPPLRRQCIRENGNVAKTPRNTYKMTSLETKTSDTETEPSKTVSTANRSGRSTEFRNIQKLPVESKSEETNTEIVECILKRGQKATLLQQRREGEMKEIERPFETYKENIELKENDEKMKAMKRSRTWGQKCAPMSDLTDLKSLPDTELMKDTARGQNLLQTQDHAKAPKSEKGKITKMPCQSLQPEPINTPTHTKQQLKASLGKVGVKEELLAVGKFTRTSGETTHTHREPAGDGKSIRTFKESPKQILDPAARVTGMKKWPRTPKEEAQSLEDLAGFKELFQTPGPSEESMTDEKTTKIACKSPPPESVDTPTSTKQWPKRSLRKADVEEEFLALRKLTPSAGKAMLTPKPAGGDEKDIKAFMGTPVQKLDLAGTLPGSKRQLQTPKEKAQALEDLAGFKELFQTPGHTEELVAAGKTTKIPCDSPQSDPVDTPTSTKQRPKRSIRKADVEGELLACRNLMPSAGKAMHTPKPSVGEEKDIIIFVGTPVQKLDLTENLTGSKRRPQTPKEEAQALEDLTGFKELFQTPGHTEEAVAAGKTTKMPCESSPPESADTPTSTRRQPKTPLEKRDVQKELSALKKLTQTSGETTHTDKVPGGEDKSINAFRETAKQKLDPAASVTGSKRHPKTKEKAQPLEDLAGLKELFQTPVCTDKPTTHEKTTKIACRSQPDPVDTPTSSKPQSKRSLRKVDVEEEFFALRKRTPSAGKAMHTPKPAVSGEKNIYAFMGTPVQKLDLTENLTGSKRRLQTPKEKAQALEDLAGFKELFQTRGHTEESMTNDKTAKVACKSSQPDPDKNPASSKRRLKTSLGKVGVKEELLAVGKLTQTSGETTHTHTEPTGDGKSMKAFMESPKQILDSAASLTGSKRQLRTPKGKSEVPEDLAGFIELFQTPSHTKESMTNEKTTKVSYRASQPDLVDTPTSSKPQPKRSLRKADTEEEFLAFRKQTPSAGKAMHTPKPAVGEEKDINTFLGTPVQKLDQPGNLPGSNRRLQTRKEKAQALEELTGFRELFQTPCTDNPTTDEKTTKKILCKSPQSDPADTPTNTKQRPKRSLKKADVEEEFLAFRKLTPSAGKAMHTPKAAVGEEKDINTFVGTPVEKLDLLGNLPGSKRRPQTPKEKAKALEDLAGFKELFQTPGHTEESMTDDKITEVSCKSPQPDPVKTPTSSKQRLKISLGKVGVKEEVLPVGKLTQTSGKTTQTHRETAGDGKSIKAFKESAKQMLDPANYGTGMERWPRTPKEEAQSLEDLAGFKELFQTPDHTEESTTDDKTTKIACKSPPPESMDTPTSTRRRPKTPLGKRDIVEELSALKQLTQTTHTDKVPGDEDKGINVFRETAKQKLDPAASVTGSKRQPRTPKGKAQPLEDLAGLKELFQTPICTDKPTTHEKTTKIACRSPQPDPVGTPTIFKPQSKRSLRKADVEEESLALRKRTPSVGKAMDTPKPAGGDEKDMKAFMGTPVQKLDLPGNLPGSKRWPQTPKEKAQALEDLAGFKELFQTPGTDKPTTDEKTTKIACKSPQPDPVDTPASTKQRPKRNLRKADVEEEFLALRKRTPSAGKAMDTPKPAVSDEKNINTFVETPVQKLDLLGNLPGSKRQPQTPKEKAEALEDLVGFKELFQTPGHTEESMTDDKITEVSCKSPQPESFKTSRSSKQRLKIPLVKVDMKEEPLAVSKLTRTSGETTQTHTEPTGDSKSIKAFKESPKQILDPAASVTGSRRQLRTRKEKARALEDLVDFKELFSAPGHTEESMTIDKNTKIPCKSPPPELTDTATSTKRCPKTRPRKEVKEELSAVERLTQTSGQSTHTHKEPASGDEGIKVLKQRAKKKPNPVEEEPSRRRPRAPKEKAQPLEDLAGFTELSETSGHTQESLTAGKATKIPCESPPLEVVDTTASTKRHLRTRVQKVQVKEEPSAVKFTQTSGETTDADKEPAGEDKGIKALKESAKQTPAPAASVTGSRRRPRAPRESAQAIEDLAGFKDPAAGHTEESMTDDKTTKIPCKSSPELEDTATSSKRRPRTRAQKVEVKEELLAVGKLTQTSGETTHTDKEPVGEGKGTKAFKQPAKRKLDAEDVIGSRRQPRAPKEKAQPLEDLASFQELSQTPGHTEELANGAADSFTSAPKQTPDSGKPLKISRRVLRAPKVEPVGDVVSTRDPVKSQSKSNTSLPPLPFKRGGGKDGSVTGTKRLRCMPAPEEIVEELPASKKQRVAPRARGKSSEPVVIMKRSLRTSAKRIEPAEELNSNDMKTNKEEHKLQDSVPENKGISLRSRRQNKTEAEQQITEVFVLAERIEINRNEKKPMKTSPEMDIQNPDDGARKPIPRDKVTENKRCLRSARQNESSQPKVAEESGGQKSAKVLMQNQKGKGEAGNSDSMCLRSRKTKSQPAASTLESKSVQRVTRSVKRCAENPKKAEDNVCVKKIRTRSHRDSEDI

B1: epithelial cell adhesion molecule (protein, UniProt P16422 24-314)
chain: QEECVCENYKLAVNCFVNNNRQCQCTSVGAQNTVICSKLAAKCLVMKAEMNGSKLGRRAKPEGALQNNDGLYDPDCDESGLFKAKQCNGTSMCWCVNTAGVRRTDKDTEITCSERVRTYWIIIELKHKAREKPYDSKSLRTALQKEITTRYQLDPKFITSILYENNVITIDLVQNSSQKTQNDVDIADVAYYFEKDVKGESLFHSKKMDLTVNGEQLDLDPGQTLIYYVDEKAPEFSMQGLKAGVIAVIVVVVIAVVAGIVVLVISRKKRMAKYEKAEIKEMGEMHRELNA
B2: apoptosis-stimulating protein 2 of p53 (protein, UniProt Q13625 1-1128)
chain: MMPMFLTVYLSNNEQHFTEVPVTPETICRDVVDLCKEPGESDCHLAEVWCGSERPVADNERMFDVLQRFGSQRNEVRFFLRHERPPGRDIVSGPRSQDPSLKRNGVKVPGEYRRKENGVNSPRMDLTLAELQEMASRQQQQIEAQQQLLATKEQRLKFLKQQDQRQQQQVAEQEKLKRLKEIAENQEAKLKKVRALKGHVEQKRLSNGKLVEEIEQMNNLFQQKQRELVLAVSKVEELTRQLEMLKNGRIDSHHDNQSAVAELDRLYKELQLRNKLNQEQNAKLQQQRECLNKRNSEVAVMDKRVNELRDRLWKKKAALQQKENLPVSSDGNLPQQAASAPSRVAAVGPYIQSSTMPRMPSRPELLVKPALPDGSLVIQASEGPMKIQTLPNMRSGAASQTKGSKIHPVGPDWSPSNADLFPSQGSASVPQSTGNALDQVDDGEVPLREKEKKVRPFSMFDAVDQSNAPPSFGTLRKNQSSEDILRDAQVANKNVAKVPPPVPTKPKQINLPYFGQTNQPPSDIKPDGSSQQLSTVVPSMGTKPKPAGQQPRVLLSPSIPSVGQDQTLSPGSKQESPPAAAVRPFTPQPSKDTLLPPFRKPQTVAASSIYSMYTQQQAPGKNFQQAVQSALTKTHTRGPHFSSVYGKPVIAAAQNQQQHPENIYSNSQGKPGSPEPETEPVSSVQENHENERIPRPLSPTKLLPFLSNPYRNQSDADLEALRKKLSNAPRPLKKRSSITEPEGPNGPNIQKLLYQRTTIAAMETISVPSYPSKSASVTASSESPVEIQNPYLHVEPEKEVVSLVPESLSPEDVGNASTENSDMPAPSPGLDYEPEGVPDNSPNLQNNPEEPNPEAPHVLDVYLEEYPPYPPPPYPSGEPEGPGEDSVSMRPPEITGQVSLPPGKRTNLRKTGSERIAHGMRVKFNPLALLLDSSLEGEFDLVQRIIYEVDDPSLPNDEGITALHNAVCAGHTEIVKFLVQFGVNVNAADSDGWTPLHCAASCNNVQVCKFLVESGAAVFAMTYSDMQTAADKCEEMEEGYTQCSQFLYGVQEKMGIMNKGVIYALWDYEPQNDDELPMKEGDCMTIIHREDEDEIEWWWARLNDKEGYVPRNLLGLYPRIKPRQRSLA

Biological target: T1, alanine aminotransferase 1 (human (endogenous in HepG2))
Test: co-IP; HepG2 lysate, primary antibody overnight at 4 C, Protein A+G Agarose, washed 5 times with PBS; ALT1 as bait, Western blot of the precipitate; agarose-only and IgG control groups

binding, binds:
KI67 (from UniProt P46013 1-3256), B1, B2

From article PMC9512495
